# According to the supplement of paper PMC3334620:
# In all, about 33,000 sequences were measured (“E-score (-0.5 to 0.5)”: median about -8e-05, highest 2% from about 0.23 on). The list shows a part of the results.
# Biological target: T1, Nrg2 (UniProt P38082)
# T1 sequence: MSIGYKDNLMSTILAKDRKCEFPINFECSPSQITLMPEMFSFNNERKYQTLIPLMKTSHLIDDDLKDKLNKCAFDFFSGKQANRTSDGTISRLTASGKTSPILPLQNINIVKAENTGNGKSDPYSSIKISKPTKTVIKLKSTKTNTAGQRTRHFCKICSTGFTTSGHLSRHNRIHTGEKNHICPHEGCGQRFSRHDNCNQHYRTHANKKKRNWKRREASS
# Experiment: PBM E-score (8-mer binding enrichment) (E-score (-0.5 to 0.5)); higher = stronger / more preferred TF binding
# Conditions: protein concentration: 100 nM; construct: GST-full length
# In short: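 Yeast transcription factors, full-length or as DNA-binding domains, were expressed with a GST tag using PURExpress in vitro transcription/translation. At about 100-200 nM they were applied to universal all-10-mer Agilent arrays, double-stranded by primer extension on fresh or once-stripped slides. Fluorescent anti-GST detected bound protein, and masliner normalised the scans. E-scores for ungapped eight-base words, pooled with reverse complements, came from the Universal PBM Analysis Suite.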
row,Sequence,PBM E-score
1,ATAATTAG,0.228
2,AAAGCGTC,-0.117
3,TCCCATCA,-0.125
4,ACCATGTG,-0.0267
5,GTACAAAC,0.127
6,GCGTGGAA,-0.0158
7,TATGGTAA,0.179
8,GGCATGTA,0.00412
9,CCAGACCG,0.116
10,GTAAGAAA,0.0855
11,CATCCACC,-0.00806
12,AGCCTCGC,-0.149
13,AGCATTGG,-0.154
14,AACGAGTC,-0.0567
15,ATTAGTGA,0.114
16,GTGAGTCA,-0.0285
17,CATAACCA,-0.0432
18,AGCCCGGC,-0.168
19,CCCACAGC,-0.129
20,AAAGTACT,-0.034
21,CCGAAGAA,0.0175
22,ACGAACCC,-0.00702

row,Sequence,PBM E-score
1,TATACTCA,0.094
2,GCTCCTCA,-0.328
3,ATAATTTC,0.118
4,AGTCAGTA,0.00919
5,ATCCTATC,-0.044
6,GTGAGACA,0.0224
7,GCCAAACC,-0.0932
8,AGTCCTTC,-0.281
9,ATAGGAAA,0.14
10,CCCATCCA,0.124
11,CGATGCCG,-0.161
12,CGAGCGGC,0.0741
13,CAAAGCAA,0.265
14,ACTCAACC,0.168
15,GCCGGCCA,0.143
16,ACCCCAAT,0.0778
17,AATTCCGG,0.0827
18,GAGCTAAC,-0.0676
19,AGTCAGTC,-0.127
20,ACCGCATA,0.0956
21,CCGGCGTC,-0.0857
22,AGTTGACA,0.0871

row,Sequence,PBM E-score
1,CAATATAC,-0.0092
2,CTCGCGTC,0.117
3,ACACCGAT,-0.0875
4,ACAGACAC,-0.0421
5,GCTCATCA,0.0152
6,CCTACATC,-0.00525
7,GCCATCCC,-0.141
8,CGTGCTTA,-0.0688
9,ACTATTCT,-0.0551
10,AGTGCTAC,-0.0774
11,CAATAACA,0.0577
12,CAAGCTGC,0.076
13,CCAAGGAC,-0.0738
14,AGAATTGC,0.0643
15,TGAGCAAA,0.0883
16,TCGATCAA,0.00221
17,AGAACGCA,0.123
18,TCTGTCAA,0.0191
19,CTGTCTGA,-0.0393
20,ATGTCCGC,-0.0786
21,TCGGACAA,0.143
22,ATGGTCCA,-0.188

row,Sequence,PBM E-score
1,ATAAGGTG,0.16
2,GACATCGC,-0.0412
3,CGTGCATA,0.0409
4,TTAGATAA,-0.0515
5,CCCCATCC,0.0659
6,CACAAAAC,0.15
7,GAATTATC,-0.00415
8,AATCACGA,-0.206
9,CGGTTTCC,0.0521
10,CAACAGTC,-0.144
11,CTCGTATC,0.13
12,AGGTACAT,-0.16
13,CCCTAGGA,-0.162
14,CGAAATAC,0.159
15,GTTGCGTA,0.0751
16,AAGCTATA,-0.187
17,CAAGGGTC,0.376
18,GGCTCTAA,-0.0578
19,AGCAAATA,0.132
20,CAGCCATG,0.0503
21,CCCGCTTA,-0.0735
22,GCAGCTCC,-0.111

# A different layout for some results above.
row	Sequence	PBM E-score
11	CAATAACA	0.0577
12	CAAGCTGC	0.076
13	CCAAGGAC	-0.0738
15	TGAGCAAA	0.0883
16	TCGATCAA	0.00221
17	AGAACGCA	0.123
18	TCTGTCAA	0.0191
19	CTGTCTGA	-0.0393
20	ATGTCCGC	-0.0786
21	TCGGACAA	0.143
1	ATAAGGTG	0.16
2	GACATCGC	-0.0412
3	CGTGCATA	0.0409
4	TTAGATAA	-0.0515
6	CACAAAAC	0.15
7	GAATTATC	-0.00415
8	AATCACGA	-0.206
9	CGGTTTCC	0.0521
10	CAACAGTC	-0.144
11	CTCGTATC	0.13
12	AGGTACAT	-0.16
13	CCCTAGGA	-0.162
14	CGAAATAC	0.159
15	GTTGCGTA	0.0751
16	AAGCTATA	-0.187
17	CAAGGGTC	0.376
18	GGCTCTAA	-0.0578
19	AGCAAATA	0.132
20	CAGCCATG	0.0503
21	CCCGCTTA	-0.0735
22	GCAGCTCC	-0.111

# Additional results

row,Sequence,PBM E-score
1,AGGTCAAG,0.0847
2,CGTAACGC,-0.0595
3,TACTAGAA,-0.0635
4,GGTTAGAA,-0.215
5,ATCTCGTA,-0.00102
6,GCTAGCTA,-0.0275
7,CGAGGTGC,0.178
8,AACGGAGT,0.12
9,ACGTAAGC,-0.145
10,ATGGAGAC,-0.0226
11,ATTATATC,0.106
12,CTCGAGTC,-0.049
13,CATGCACC,0.0198
14,GAGCCCAA,0.0286
15,GGTATGAA,0.131
16,AAGATTGC,0.126
17,CTGCGTGA,0.094
18,GGGTTGCA,0.021
19,CGGTATTC,0.0764
20,CCAGATAG,-0.01
21,AAAGTTAT,0.222
22,GTCCCACA,0.0612
